From the supplement of paper PMC9233669
Variants at the floor of the assay are shown more often than the library holds them.

Legend:
biotinyl-Trp-oxazolone = experiment: self-aminoacylation, catalytic enhancement (BWO) (fold over background); higher = more active; k-Seq, kA / k0A0; sequences stand for … in GGGAAUGGAUCCACAUCUACGAAUUC…UUCACUGCAGACUUGACGAAGCUG
In short: (§1)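 Each biotinyl-aminoacyl-oxazolone, at 2–1250 μM, was incubated with mutagenized RNA pools (0.43 μM) carrying a 21-nt variable region. The 50 μL reactions contained HEPES/NaCl/KCl/MgCl2/CaCl2 buffer with 5% acetonitrile at pH 6.9–7.0 and ran for 90 minutes at room temperature. After streptavidin capture, RNA was measured by qPCR in triplicate and by Illumina sequencing, and catalytic enhancement was calculated as median kA over the uncatalyzed rate from a pseudo-first-order fit of per-sequence fraction reacted.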

biotinyl-Leu-oxazolone = experiment: self-aminoacylation, catalytic enhancement (BLO) (fold over background); higher = more active; k-Seq, kA / k0A0; sequences stand for … in GGGAAUGGAUCCACAUCUACGAAUUC…UUCACUGCAGACUUGACGAAGCUG
In short: as §1

biotinyl-Val-oxazolone = experiment: self-aminoacylation, catalytic enhancement (BVO) (fold over background); higher = more active; k-Seq, kA / k0A0; sequences stand for … in GGGAAUGGAUCCACAUCUACGAAUUC…UUCACUGCAGACUUGACGAAGCUG
In short: as §1

biotinyl-Ile-oxazolone = experiment: self-aminoacylation, catalytic enhancement (BIO) (fold over background); higher = more active; k-Seq, kA / k0A0; sequences stand for … in GGGAAUGGAUCCACAUCUACGAAUUC…UUCACUGCAGACUUGACGAAGCUG
In short: as §1

biotinyl-Met-oxazolone = experiment: self-aminoacylation, catalytic enhancement (BMO) (fold over background); higher = more active; k-Seq, kA / k0A0; sequences stand for … in GGGAAUGGAUCCACAUCUACGAAUUC…UUCACUGCAGACUUGACGAAGCUG
In short: as §1

biotinyl-Phe-oxazolone = experiment: self-aminoacylation, catalytic enhancement (BFO) (fold over background); higher = more active; k-Seq, kA / k0A0; sequences stand for … in GGGAAUGGAUCCACAUCUACGAAUUC…UUCACUGCAGACUUGACGAAGCUG
In short: as §1

Row | Sequence | self-aminoacylation (biotinyl-Trp-oxazolone) | self-aminoacylation (biotinyl-Leu-oxazolone) | self-aminoacylation (biotinyl-Val-oxazolone) | self-aminoacylation (biotinyl-Ile-oxazolone) | self-aminoacylation (biotinyl-Met-oxazolone) | self-aminoacylation (biotinyl-Phe-oxazolone)
1 | AUUACCUUGGUCAUCGAGUGG [Fam2.1 aminoacylation ribozyme variant] | 0.873 | 2.13 | 1.45 | 1.67 | 2.08 | 1.64
2 | CUACCUCAUACAAUCGGUCUG [Fam1A.1 aminoacylation ribozyme variant] | 0.673 | 0.63 | 0.752 | 0.875 | 0.967 | 1.25
3 | UUACUUCAAACCAUCGGUCUG [Fam1A.1 aminoacylation ribozyme variant] | 1.02 | 0.847 | 1.03 | 1.09 | 1.06 | 1.23
4 | CCAGACUGCAAGCAAUCGGUC [Fam1B.1 aminoacylation ribozyme variant] | 1.07 | 1.48 | 1.38 | 1.64 | 1.7 | 1.79
5 | AAGUUUGUUAAUAGUCGCCAG [Fam3.1 aminoacylation ribozyme variant] | 1.28 | 1.11 | 0.959 | 1.28 | 1.1 | 1.01
6 | CCACACUACAGGCAAUCGGUC [Fam1B.1 aminoacylation ribozyme variant] | 1.09 | 1.21 | 1.23 | 1.15 | 1.05 | 0.908
7 | CUACUUUAAACAAUCUGUCUG [Fam1A.1 aminoacylation ribozyme variant] | 0.427 | 0.62 | 0.759 | 0.707 | 0.642 | 0.636
8 | AAGUUUGCUAAUAAUCUCAAG [Fam3.1 aminoacylation ribozyme variant] | 0.999 | 0.727 | 0.984 | 0.9 | 0.768 | 1.17
9 | CCACACUUCAAGCAACCGGAC [Fam1B.1 aminoacylation ribozyme variant] | 0.606 | 0.602 | 1.07 | 1.15 | 0.839 | 0.734
10 | AUUAACCUGGUCGUCGAGUGA [Fam2.1 aminoacylation ribozyme variant] | 0.565 | 0.886 | 0.901 | 0.891 | 1.2 | 0.504
11 | CCACACUUCAAGCAAUCGGAC [Fam1B.1 aminoacylation ribozyme variant] | 1.09 | 0.63 | 0.872 | 0.85 | 0.694 | 1.79
12 | CCACACUGCAAGCAAUCGGUC [Fam1B.1 aminoacylation ribozyme variant] | 1 | 0.943 | 1.25 | 1.1 | 0.95 | 1.09
13 | AGUACCCUGGUCAUUGAGUGA [Fam2.1 aminoacylation ribozyme variant] | 9.07 | 7.4 | 3.39 | 3.86 | 6.37 | 37.2
14 | CCACACUACAAGUAAUCGGUC [Fam1B.1 aminoacylation ribozyme variant] | 0.714 | 0.736 | 0.755 | 0.851 | 0.663 | 0.994
15 | AUUACCGUGGUCAUAGAGUGA [Fam2.1 aminoacylation ribozyme variant] | 7.99 | 6.95 | 3.97 | 3.67 | 7.8 | 35.7
16 | CCACAUUUCAAGCAAUCCGUC [Fam1B.1 aminoacylation ribozyme variant] | 0.987 | 1.06 | 1.39 | 1.4 | 1.22 | 1.25
17 | UUACUUCCAACAAUCGGUCUG [Fam1A.1 aminoacylation ribozyme variant] | 1.12 | 0.947 | 0.981 | 0.943 | 0.999 | 1.09
18 | AUCACCCUGGUCAUCGCGUGA [Fam2.1 aminoacylation ribozyme variant] | 33.8 | 36.4 | 17.1 | 12.1 | 33.9 | 215
19 | AUUACCCUGAUCAUCGAGCGA [Fam2.1 aminoacylation ribozyme variant] | 1.98 | 1.61 | 1.32 | 1.48 | 1.44 | 0.755
20 | UUUCACCUAGGUCACCGGGUG [Fam2.2 aminoacylation ribozyme variant] | 5.47 | 5.2 | 3.87 | 3.8 | 3.77 | 26.7
21 | CCACACUUUAUGCAAUCGGUC [Fam1B.1 aminoacylation ribozyme variant] | 0.554 | 0.637 | 0.79 | 0.758 | 0.559 | 0.887
22 | AUUCACCUACGUCAUCGGAUG [Fam2.2 aminoacylation ribozyme variant] | 0.335 | 0.648 | 0.783 | 0.643 | 0.627 | 0.403
23 | AUUUCCCUCGUCAUCGAGUGA [Fam2.1 aminoacylation ribozyme variant] | 4.57 | 3.93 | 2.6 | 2.5 | 3.39 | 21.2
24 | CUACUUGAAACAAUCGCUCUG [Fam1A.1 aminoacylation ribozyme variant] | 0.655 | 0.805 | 0.782 | 0.777 | 0.626 | 0.553
25 | AAGUUUGCUAAUAGGCGCACG [Fam3.1 aminoacylation ribozyme variant] | 0.485 | 0.865 | 0.833 | 0.981 | 0.568 | 2.42
26 | AAGUGUGCUAAUAGUUGCAAG [Fam3.1 aminoacylation ribozyme variant] | 0.866 | 1.18 | 1.16 | 1.38 | 1.7 | 1.84

Row | Sequence | self-aminoacylation (biotinyl-Trp-oxazolone) | self-aminoacylation (biotinyl-Leu-oxazolone) | self-aminoacylation (biotinyl-Val-oxazolone) | self-aminoacylation (biotinyl-Ile-oxazolone) | self-aminoacylation (biotinyl-Met-oxazolone) | self-aminoacylation (biotinyl-Phe-oxazolone)
27 | CUACUUCACACAAUCGCUCUG [Fam1A.1 aminoacylation ribozyme variant] | 0.533 | 1.38 | 1.22 | 1.07 | 1.08 | 0.953
28 | AUUGCCCUGGUCAUCGAGUGG [Fam2.1 aminoacylation ribozyme variant] | 29.8 | 29.4 | 10.9 | 9.44 | 30.9 | 197
29 | CCACACUUUAAGCAAUCGGUU [Fam1B.1 aminoacylation ribozyme variant] | 1.82 | 0.792 | 1.04 | 1.06 | 1.06 | 1.04
30 | CUACUUCAAACAAUUGGUCUU [Fam1A.1 aminoacylation ribozyme variant] | 0.615 | 0.647 | 0.935 | 1.01 | 0.761 | 1.14
31 | AUUACCCUGGUCAUGAAGUGA [Fam2.1 aminoacylation ribozyme variant] | 10.1 | 7.74 | 4.08 | 4.14 | 8.83 | 44.8
32 | CCACACUUCUAACAAUCGGUC [Fam1B.1 aminoacylation ribozyme variant] | 0.618 | 0.69 | 0.798 | 0.797 | 0.619 | 0.614
33 | AAGUUUGCUAAUCGUCGAAAG [Fam3.1 aminoacylation ribozyme variant] | 0.986 | 0.772 | 0.965 | 0.971 | 0.802 | 1.72
34 | CUACUUCAAACAAUCGUUUUG [Fam1A.1 aminoacylation ribozyme variant] | 0.576 | 0.568 | 0.669 | 0.758 | 0.603 | 0.98
35 | AAGUUUGCUUUUAGUCGCAAG [Fam3.1 aminoacylation ribozyme variant] | 1.21 | 0.839 | 0.888 | 0.764 | 0.724 | 1.38
36 | CCGCACAUCAAGCAAUCGGUC [Fam1B.1 aminoacylation ribozyme variant] | 1.79 | 0.872 | 1.43 | 1.1 | 0.839 | 1.76
37 | CAACUACAAACAAUCGGUCUG [Fam1A.1 aminoacylation ribozyme variant] | 1.14 | 1.03 | 0.826 | 0.893 | 1.2 | 1.89
38 | AUACUUCAAACAAUCGGUCAG [Fam1A.1 aminoacylation ribozyme variant] | 1.88 | 0.728 | 0.891 | 0.82 | 0.672 | 3.2
39 | AUUACCCUGAUCAUCGAUUGA [Fam2.1 aminoacylation ribozyme variant] | 0.45 | 0.901 | 1.02 | 0.958 | 0.925 | 0.675
40 | AAGUGUGCUAAUAGUCGGAAG [Fam3.1 aminoacylation ribozyme variant] | 3.96 | 1.31 | 1.26 | 1.47 | 1.4 | 11
41 | AAGUUUGUUAAUAGUCGCUAG [Fam3.1 aminoacylation ribozyme variant] | 0.885 | 0.78 | 0.832 | 0.883 | 0.884 | 1.57
42 | CUACAUCAAAUAAUCGGUCUG [Fam1A.1 aminoacylation ribozyme variant] | 0.824 | 0.717 | 0.864 | 0.801 | 0.804 | 1.42
43 | CUACUUCAAACGAUCGGUCCG [Fam1A.1 aminoacylation ribozyme variant] | 0.861 | 1.08 | 0.743 | 0.8 | 0.988 | 0.404
44 | AUUACCAUGGUCAUCGAUUGA [Fam2.1 aminoacylation ribozyme variant] | 1.07 | 0.956 | 1 | 0.838 | 0.928 | 0.561
45 | AAGUGUGCUUAUAGUCGCAAG [Fam3.1 aminoacylation ribozyme variant] | 1.79 | 1.2 | 1.24 | 1.33 | 1.21 | 1.25
46 | CUACUUCAAACAACCGGUCUA [Fam1A.1 aminoacylation ribozyme variant] | 1.08 | 0.908 | 1.01 | 1.06 | 0.721 | 1.01
47 | CCACACUUCAAACCAUCGGUC [Fam1B.1 aminoacylation ribozyme variant] | 0.754 | 1.13 | 1.07 | 0.866 | 0.898 | 0.978
48 | AAGUUGACUAAUAGUCGCAAG [Fam3.1 aminoacylation ribozyme variant] | 1.19 | 0.935 | 0.949 | 1.18 | 0.839 | 1.5
49 | AUGUUUGCGAAUAGUCGCAAG [Fam3.1 aminoacylation ribozyme variant] | 1.92 | 1.29 | 1.6 | 1.35 | 1.46 | 2.47
50 | CAAUUUGCUAAUAGUCGCAAG [Fam3.1 aminoacylation ribozyme variant] | 0.763 | 1.04 | 1.11 | 1.35 | 1.19 | 1.37
51 | CCACACGUCAAGCAAUCGGUU [Fam1B.1 aminoacylation ribozyme variant] | 1.45 | 1.32 | 2.28 | 1.54 | 1.57 | 0.693
